Assay results from the supplement of paper PMC3334620.
Over roughly 33,000 sequences, “E-score (-0.5 to 0.5)” has its median near -8e-05; the highest 2% begin near 0.23. Some of the results follow.

These sequences were tested against T1, Nrg2 (UniProt P38082) (assay: PBM E-score (8-mer binding enrichment) (E-score (-0.5 to 0.5)); higher = stronger / more preferred TF binding). Details: protein concentration: 100 nM; construct: GST-full length.
T1 sequence: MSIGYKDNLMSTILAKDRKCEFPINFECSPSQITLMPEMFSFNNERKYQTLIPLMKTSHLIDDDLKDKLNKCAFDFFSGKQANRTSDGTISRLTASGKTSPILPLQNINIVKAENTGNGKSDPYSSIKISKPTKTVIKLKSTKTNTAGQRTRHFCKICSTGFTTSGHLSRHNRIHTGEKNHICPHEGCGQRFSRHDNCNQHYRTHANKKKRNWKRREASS
Method: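 Universal 'all 10-mer' protein binding microarrays (Agilent AMADID 015681) probed with GST-tagged S. cerevisiae TFs (full-length or DBD) made by in vitro transcription/translation (PURExpress), about 100-200 nM. Bound TF was detected with fluorescent anti-GST. Each ungapped 8-mer (which stands for itself and its reverse complement) is scored by the PBM enrichment score (E-score), a modified Wilcoxon-Mann-Whitney statistic from -0.5 to +0.5, computed with the Universal PBM Analysis Suite. Scale: above 0.35 generally sequence-specific binding.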

Row | Sequence | PBM E-score
1 | GACAGACC | 0.0299
2 | AGATTCTC | -0.0109
3 | CTGATCAG | 0.0207
4 | AACAATAG | -0.124
5 | GCACTTGA | 0.00018
6 | CGTATCAA | -0.0136
7 | ATCACGAC | -0.0381
8 | TGATTCCA | -0.0557
9 | ATGCGCTC | -0.0254
10 | ACACCTTA | 0.0638
11 | CACATGTC | -0.0919
12 | AATGCAGG | 0.0903
13 | ATTGTCGA | 0.0199
14 | ACATAAGA | 0.0974
15 | ATGCGCCG | 0.0667
16 | ACTACGAT | 0.0855
17 | CAGGAGCC | -0.276
18 | AGTGCGCA | 0.135
19 | AGGTTGGC | -0.0231
20 | GTGGCACA | -0.167
21 | AGTGTACC | -0.0931
22 | CTTTTTTC | -0.0316
23 | CTGGTTCC | 0.158
24 | GCCGGCGC | 0.0423
25 | TAGCCCGA | -0.049

Row | Sequence | PBM E-score
26 | CCGATGAA | 0.0696
27 | GATCCTGC | 0.0394
28 | AGAGTCCT | -0.126
29 | GACCCAGA | 0.0516
30 | CACTTATG | 0.0308
31 | TACTGCCA | 0.067
32 | CCCGAAGC | -0.0863
33 | TCTTCTCA | -0.0396
34 | CGCGGGAG | -0.0164
35 | GCGCCAAC | 0.0893
36 | ATTAAAAC | 0.241
37 | ACCAGAGT | -0.219
38 | ATTGAATC | -0.00839
39 | AGAGAAGG | -0.0745
40 | AGACTAAG | -0.00848
41 | ATTTCACG | 0.0656
42 | GAGCTTGA | -0.107
43 | CGGAACCC | 0.146
44 | ACCTGCTA | 0.00127
45 | AGTTGAGG | 0.00192
46 | ACTTATCC | -0.0934
47 | AAGGTTTC | -0.0346
48 | GCCTGGAC | -0.0686
49 | AGGTCGCG | -0.0425
50 | CGAGAGGC | -0.167

Row | Sequence | PBM E-score
51 | ACCTACCA | -0.0595
52 | AAATACTC | -0.0877
53 | GCGTCTAA | -0.0759
54 | ATGGCGGG | 0.00045
55 | CGCTAGAA | -0.0308
56 | CGGCAGCA | -0.087
57 | GCGCTTAA | 0.11
58 | CGACTTCC | -0.172
59 | TCGTGGCA | 0.0984
60 | GGAGTCAC | -0.192
61 | GCCTTTCA | 0.00577
62 | ATGGCAGG | 0.12
63 | GTCCGCAA | 0.00224
64 | AGACAAGG | -0.194
65 | ACTATGAA | 0.109
66 | ATGGGCGA | -0.111
67 | CGCAGCTC | -0.00261
68 | CCTATTGC | -0.0736
69 | AAATACCT | 0.191
70 | GCATGGGA | -0.0572
71 | AAATTCTC | -0.0106
72 | GATCCCAA | 0.0162
73 | CGACCTGA | 0.0565
74 | GCTGTATA | 0.00165
75 | ACACTGGA | 0.207

Quoted from the listing.
Entry of AAATTCTC under PBM E-score: -0.0106
Entry of AAGGTTTC under PBM E-score: -0.0346
Entry of ACTATGAA under PBM E-score: 0.109
Entry of CGCAGCTC under PBM E-score: -0.00261
Entry of ATTTCACG under PBM E-score: 0.0656
Entry of CGAGAGGC under PBM E-score: -0.167

(further entries)

Row | Sequence | PBM E-score
76 | AACGCCGT | -0.0556
77 | AATCAGCG | 0.224
78 | GACATACA | 0.246
79 | ACTAACTG | 0.111
80 | GCCAGAGA | -0.129
81 | CATGAGGG | 0.0287
82 | GTAGAGGA | -0.252
83 | CATTTGTC | -0.00312
84 | CATACTGA | 0.135
85 | ACCCTCGG | -0.0827
86 | ATAACTTC | 0.124
87 | GCCACTGA | -0.0644
88 | CCCTTGAG | 0.199
89 | GAAGGTTA | -0.0296
90 | AAGGAGGA | -0.283
91 | CCATAACG | 0.0769
92 | GGAAAATA | 0.127
93 | GAGCCTGA | -0.232
94 | AACGTCTA | -0.0654
95 | AAGCGCTG | 0.06
96 | CTCAAGGA | 0.068
97 | AAGACCTC | -0.262
98 | ACCCATAG | -0.0908
99 | TCAGCCGA | -0.0551
100 | CTGTTACA | 0.0698

Row | Sequence | PBM E-score
101 | CCTCGCTA | -0.234
102 | GCAGGACA | 0.0152
103 | AAATAAGA | 0.0747
104 | ACCCGTTA | 0.0912
105 | ATATAAGA | 0.157
106 | CCGCTCGC | -0.0913
107 | CGTTTGCA | 0.169
108 | CAATGCTA | -0.0203
109 | CTGTCGAA | -0.0413
110 | AGGCCAAA | 0.126
111 | CAAGGAAC | 0.0725
112 | AAAGCAAG | 0.226
113 | GCTTAAGA | -0.1
114 | AAGATTCG | 0.181
115 | AGTGATAA | -0.128
116 | AGCTAACG | -0.0986
117 | TCAGGCAA | -0.0502
118 | ATGCAGAC | 0.0103
119 | CCCATGAA | 0.05
120 | CGGAGCTC | -0.18
121 | CTTCCAAA | -0.0408
122 | GGACATAC | 0.165
123 | ACTTAGAT | 0.134
124 | CCTTTTAC | 0.0855
125 | AACAAATG | 0.0558

Row | Sequence | PBM E-score
126 | CGTGCATC | -0.0219
127 | ACTGCCGC | 0.143
128 | AGTAAAAC | -0.108
129 | ATCGTAAG | 0.00567
130 | CCCGCGAA | 0.222
131 | GAAGATCC | -0.17
132 | AACGTTTG | -0.043
133 | CAGCTAGA | -0.0377
134 | GTGCTCTA | -0.0218
135 | AGATAACA | 0.202
136 | CATAGAAC | 0.0704
137 | CCGATACA | 0.0316
138 | CCCTCTGC | -0.344
139 | ATGCTGCG | -0.0771
140 | CTCAAACC | 0.077
141 | AATGGCGG | 0.0103
142 | AATCGGTC | -0.00023
143 | GTACAGAC | -0.174
144 | ACTAGTTG | 0.0727
145 | CGAGGGAG | -0.151
146 | CCATCTTA | -0.00841
147 | CACAGTAG | 0.14
148 | AGTCTGCA | -0.202
149 | CAGCAGCA | -0.0767
150 | ATCATATG | 0.0803

Row | Sequence | PBM E-score
151 | AAGTCTGG | -0.151
152 | GACTCGCA | -0.0592
153 | GATAACGA | 0.0109
154 | ATCCATCG | -0.0274
155 | ATGTAGAG | -0.102
156 | CAAAATTG | 0.0809
157 | CACAATGA | 0.115
158 | CCCTCTAG | -0.23
159 | AGTCGGGA | -0.164
160 | AACCCGGC | -0.134
161 | GACTGCGC | -0.0716
162 | TAGGGGCA | 0.0207
163 | CATACTCA | -0.00405
164 | GCTCTTCA | -0.086
165 | CGGATGAA | 0.199
166 | CTTTAAAC | -0.065
167 | CGCCACAC | -0.00344
168 | ACCTCGTA | 0.0407
169 | ATAAAACA | -0.0258
170 | CCATAGCA | -0.00563
171 | ACAGTAAC | 0.0682
172 | CCCCTAGC | -0.151
